Results: PubChem BioAssay AID2685 (National Center for Advancing Translational Sciences (NCATS), 2010)
The campaign covered roughly 320,000 compounds. About 2,100 (0.66%) were called active. Inconclusive results, whose numbers are uncertain, are shown with a selection of clear calls. The call rests on the fitted dose curve; in most records, active means well fitted inhibition curve with a large enough effect in the signal ratio, with a control signal flat (not every such curve was filed as active); inconclusive means small, poorly fitted or top-dose-only effect, or effect the other way, or a change in a side signal; inactive means flat fitted curve, though single readings scatter; the % refers to the signal ratio. A potency beside an inconclusive call is a rough fit, not a confirmed value.

Assay: qHTS Assay for Lipid Storage Modulators in Drosophila S3 Cells
Conditions: BODIPY lipid droplet fluorescence, 18-24 h, cells fed with added oleic acid; lipid storage change, negative = inhibition: at 46.1 µM (top of the series) unless noted
Outline: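 Laser-scanning cytometry quantifies lipid droplet accumulation (500–530 nm total intensity; droplet/cell object ratio) in oleic acid-fed (400 uM added) Drosophila S3 cells treated with a concentration series. 20 uM Triacsin C defined 100% inhibition.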
On the % scale 0 is the no-effect control and ±100 the full control effect; potency means the concentration at half of the fitted maximal effect.

Row | Compound | lipid storage change, negative = inhibition | Potency
1 | COc1ccc(N2CCN(C(=O)C3CC(O)CN3S(=O)(=O)c3ccc([N+](=O)[O-])cc3)CC2)cc1 (configuration not stated) | inconclusive: 14.3% | 
2 | NC(=O)c1cccc2c(=O)oc3ccccc3c12 | inconclusive: -32.3% | 
3 | Cc1cc(-n2cnc3c(=O)[nH]cnc32)ccc1N | inconclusive: 22.1% | 
4 | CCN(CC)CCNC(=O)NC(=O)c1ccc(Cl)cc1 | inconclusive: -4.23% | 
5 | CC(C)(C)C1CCc2onc(C(=O)Nc3ccc4c(c3)OCO4)c2C1 (configuration not stated) |  | inconclusive: 0.461 µM [falling, single point]
6 | O=C(O)c1cc(O)ccc1NC(=O)C(c1ccccc1)c1ccccc1 | inconclusive: 265% | 
7 | N#C/C(=C(/O)COC(=O)c1ccc2c(c1)OCCO2)c1nc2ccccc2[nH]1 | inconclusive: 14.5% | 
8 | COc1ccc(NS(=O)(=O)c2ccc(Oc3ncccn3)cc2)cc1 |  | inconclusive: 2.31 µM [activator, full curve, poor fit]
9 | O=C(Nc1ccccc1-c1ccccc1)c1ccccc1 |  | inconclusive: 29.1 µM [falling, single point]
10 | CCC(C)[C@H](NC(=O)NCCCN1CCOCC1)C(=O)OC (some centres not stated) | inactive | 
11 | Cc1ccccc1NC(=O)Cc1nc(COC(=O)Cc2ccccc2F)cs1 | inconclusive: -12.5% | 
12 | CN(C)S(=O)(=O)c1cccc(NC(=O)COc2cccc3ccccc23)c1 |  | inconclusive: 0.651 µM [activator, full curve]
13 | CCOC(=O)/C=C1\SCC(=O)N1CC(=O)NC1CCCCC1 | inconclusive: 3.38% | 
14 | CC(Sc1nnc(-c2ccco2)n1C)C(=O)Nc1nccs1 (configuration not stated) | inconclusive: -43.8% [at 0.0737 µM] | 
15 | Clc1cccc(Cl)c1NC1=NCCC1 | inactive | 
16 | COC(=O)c1ccc(-n2c(C)cc(C(=O)CSc3ccc(NC(C)=O)cc3)c2C)cc1 |  | inconclusive: 0.82 µM [falling, full curve]
17 | CCCc1cc(=O)[nH]c(SCC(=O)Nc2sc3c(c2C#N)CCC(C)C3)n1 (configuration not stated) | inconclusive: 21.8% | 
18 | Cc1ccc(C(=O)COC(=O)CCc2nc3ccccc3[nH]c2=O)cc1C | inconclusive: 2.47% | 
19 | O=C(Nc1cccc(C(F)(F)F)c1)c1cc2c(=O)c3ccccc3oc2nc1C(F)(F)F | inconclusive: -18.8% | 
20 | Cc1cc(=O)oc2cc(OC(C)C(=O)NCC3CCC(C(=O)O)CC3)c(Cl)cc12 (configuration not stated) | inconclusive: -2.13% | 
21 | N#CCNC1CC(=O)N(c2ccccc2)C1=O (configuration not stated) | inconclusive: 19.6% | 
22 | COc1ccc(S(=O)(=O)NCc2ccc(C(=O)N3CCc4ccccc4C3)cc2)cc1 |  | inconclusive: 14.6 µM [activator, partial curve]
23 | CC(=O)NCCNC(=O)C1CCC(CNc2nc(=S)[nH]c3ccccc23)CC1 (configuration not stated) | inconclusive: -84.6% | 
24 | CCOc1ccccc1NC(=O)Cn1nc(-c2ccco2)ccc1=O | inconclusive: -153% | 
25 | CC(=O)Oc1cc2c(cc1Cl)C(c1cccs1)CC1(CC(C)(C)NC(=S)N1)O2 (configuration not stated) | inconclusive: -13% | 
26 | CCCCn1c(N)c(N(CC(C)C)C(=O)COC(=O)C2(c3ccccc3)CC2)c(=O)[nH]c1=O | inconclusive: 3.15% | 

Row | Compound | lipid storage change, negative = inhibition | Potency
27 | O=C(CCS(=O)(=O)c1ccc(Br)cc1)NCCC1=CCCCC1 |  | inconclusive: 1.16 µM [activator, full curve, poor fit]
28 | CCCC(=O)Nc1nn(C)c2nc3c(C)cccc3cc12 |  | inconclusive: 0.0046 µM [activator, full curve, poor fit]
29 | COc1ccccc1C(=O)Nc1ccnn1C1CCN(C(C)CSC)CC1 (configuration not stated) |  | inconclusive: 29.1 µM [falling, single point]
30 | CCN(CC)C(=O)N1CCN(C(=O)N2CCOCC2)CC1 | inconclusive: -4.97% | 
31 | Cc1ccc(-c2nnc(-c3cc(C)on3)o2)cc1 | inconclusive: -11.2% | 
32 | O=C(Cc1ccccc1)NNC(=O)C1CCCC1 | inconclusive: -43.1% | 
33 | CCOC(=O)Cc1csc(SCC(=O)Nc2cc(C)ccc2OC)n1 | inconclusive: -71.9% [at 0.00295 µM] | 
34 | Cc1ccccc1S(=O)(=O)NCC1CCCO1 (configuration not stated) | inactive | 
35 | C=CCN(c1ccc(F)cc1)S(=O)(=O)c1cc(C(=O)OCC(=O)N(C)C2CCS(=O)(=O)C2)ccc1Cl (configuration not stated) | inconclusive: 2.01% | 
36 | CN(C)CCCNCCCCNC(=O)/C=N/O | inconclusive: 2.18% | 
37 | C/C(=C\C(=O)c1c(O)cc(C)oc1=O)N(C)C |  | inconclusive: 3.66 µM [activator, single point]
38 | O=S(=O)(Nc1ccc2c(c1)OCCO2)c1ccc(F)c(F)c1 |  | inconclusive: 29.1 µM [activator, single point]
39 | O=C(Cn1cc(C(F)(F)F)ccc1=O)Nc1ccc(N2CCOCC2)cc1 | inconclusive: -3.82% | 
40 | CC(C)(C)N=C1NN=C(c2ccc(Cl)cc2)CS1 | inconclusive: -14% | 
41 | Cc1cccc(NC(=O)c2cccc(N3C(=O)C4C5C=CC(C6CC56)C4C3=O)c2)c1 (configuration not stated) |  | active: 1.3 µM
42 | O=C(CCl)NNC(=O)c1c(O)c2ccccc2[nH]c1=O |  | inconclusive: 16.4 µM [falling, partial curve, poor fit]
43 | Cc1cc(C)n(C(=O)CNC(=O)c2ccccc2F)n1 | inconclusive: 43.4% | 
44 | CC(=O)C1=C(C)NC(SCC(=O)Nc2nc3ccccc3s2)=C(C#N)C1c1ccc(Cl)cc1 (configuration not stated) | inconclusive: -22.8% | 
45 | COCc1c(C(=O)N/N=C(/C)c2ccc(OCc3ccccc3)cc2)nnn1-c1nonc1N |  | inconclusive: 7.31 µM [falling, partial curve, poor fit]
46 | COc1ccc(CSc2nc(C)cc(=O)[nH]2)cc1 | inconclusive: -20.3% | 
47 | O=C(Oc1ccc(-c2nnco2)cc1)N1CCCCC1 | inconclusive: 23.1% | 
48 | O=C(OCC(=O)N1CCN(c2ccccc2)CC1)c1ccc2ccccc2n1 |  | inconclusive: 0.103 µM [rising, full curve, poor fit]
49 | O=c1c(-c2ccccc2)nc(-c2ccccc2)cn1O | inconclusive: -10.9% | 
50 | CCOC(=O)Cc1nnc(NC(=O)CSc2nc3ccccc3[nH]2)s1 | inconclusive: -24.2% | 
51 | CCc1ccc(NC(=O)CSc2nnc(Cc3cccn3C)n2-c2ccc(F)cc2)cc1 | inconclusive: 46.8% | 
52 | COc1ccc(N(CC(=O)Nc2cc(OC)c(OC)cc2C(=O)O)S(=O)(=O)c2c(C)noc2C)cc1 |  | inconclusive: 6.51 µM [falling, single point]

Row | Compound | lipid storage change, negative = inhibition | Potency
53 | Cc1c(C(=O)N(C)Cc2ccc(OC(F)F)cc2)oc2ccccc12 |  | inconclusive: 5.8 µM [activator, single point]
54 | CCC1CCCCN1CCCNC(=O)c1ccc2c(c1)NC(=O)CS2 (configuration not stated) | inactive | 
55 | CC(=O)c1ccc(N2CCN(CC(=O)NC(=O)NCc3ccccc3)CC2)cc1 | inconclusive: -1.71% | 
56 | CN1CCN(C(=O)C2C3C=CC(C3)C2C(=O)O)CC1 (configuration not stated) | inconclusive: -52.8% | 
57 | COc1ccccc1C(=O)NC1CCSc2ccccc21 (configuration not stated) |  | inconclusive: 9.2 µM [activator, partial curve]
58 | CCOC(=O)C1CCN(C2CCN(C(=O)c3oc4c(C)c(C)ccc4c3C)CC2)CC1 |  | inconclusive: 0.731 µM [falling, full curve, poor fit]
59 | COc1ccc([N+](=O)[O-])cc1NC(=O)CCCOc1ccccc1 | inconclusive: 0.777% | 
60 | CCn1c2ccccc2c2cc(NC(=O)CN(C)CC(=O)Nc3ccc(N4CCOCC4)cc3)ccc21 | inactive: -0.511% [at 9.22 µM] | 
61 | Cc1cc(C(F)(F)F)c2c(N)c(C(=O)NC3CC3)sc2n1 |  | active: 17.8 µM
62 | CN1CCN(CC2(O)CCN(S(=O)(=O)c3ccc(Cl)cc3)CC2)CC1 | inconclusive: 6.42% | 
63 | Cc1cc(C)c(O)c(NC(=S)NC(=O)Cc2ccccc2)c1 | inactive | 
64 | COC(=O)C1C(c2ccc(OC)cc2)Nc2nnc(C(F)(F)F)n2C1(C)O (configuration not stated) | inconclusive: 14% | 
65 | COc1ccc2nc(NC(=O)Cn3cnc4ccccc4c3=O)sc2c1 | inconclusive: 20% | 
66 | CCc1ccc(NC(=O)Cc2c(C(=O)O)n(C)c3ccccc23)cc1 |  | inconclusive: 29.1 µM [cytotoxic, single point]
67 | COc1ccc(OC)c(NC(=O)c2cc(-c3cc(C)ccc3O)n[nH]2)c1 |  | inconclusive: 29.1 µM [rising, single point]
68 | Cc1cc(C)n2nc(Sc3ncccc3[N+](=O)[O-])nc2n1 | inactive | 
69 | Cc1ccc(C(=O)COC(=O)c2ccc(Cl)c(N)c2)s1 |  | inconclusive: 25.9 µM [activator, single point]
70 | COCCCn1c(SC(C)C(=O)Nc2c(C)n(C)n(-c3ccccc3)c2=O)n[nH]c1=O (configuration not stated) | inconclusive | 
71 | O=C(NCc1ccccn1)C1CCCN(S(=O)(=O)c2ccc(Br)cc2)C1 (configuration not stated) |  | inconclusive: 29.1 µM [falling, single point]
72 | O=C(c1cc(COc2cccc(C(F)(F)F)c2)on1)N1C[C@@H]2CCC[C@H]1C2 |  | inconclusive: 29.1 µM [falling, single point]
73 | CNS(=O)(=O)c1ccc(NC(=O)C2CC(=O)N(c3ccc(Cl)cc3)C2)cc1 (configuration not stated) | inconclusive: 103% | 
74 | COCCNc1nc2nonc2nc1N(C)Cc1ccc(C)cc1 | inconclusive: 20.4% | 
75 | COc1ccccc1-n1cnnc1SCC(=O)Nc1ncc(Cl)cc1Cl |  | inconclusive: 2.59 µM [falling, full curve]
76 | COc1ccc(CCNC(=O)c2cnn(-c3ccc(C)c(C)c3)c2NC(=O)c2ccco2)cc1OC | inconclusive: 4.36% | 
77 | CC(C)(CNC(=O)c1cccc(S(=O)(=O)Nc2ccc(Br)cc2)c1)N1CCOCC1 | inconclusive: 14.7% | 

2 compounds picked at random from those above, as already listed:
Row | Compound | lipid storage change, negative = inhibition | Potency
64 | COC(=O)C1C(c2ccc(OC)cc2)Nc2nnc(C(F)(F)F)n2C1(C)O (configuration not stated) | inconclusive: 14% | 
60 | CCn1c2ccccc2c2cc(NC(=O)CN(C)CC(=O)Nc3ccc(N4CCOCC4)cc3)ccc21 | inactive: -0.511% [at 9.22 µM] | 

Individual results from the results shown.
lipid storage change, negative = inhibition with CN1CCN(C(=O)C2C3C=CC(C3)C2C(=O)O)CC1 (configuration not stated) reads inconclusive: -52.8%
lipid storage change, negative = inhibition with COC(=O)C1C(c2ccc(OC)cc2)Nc2nnc(C(F)(F)F)n2C1(C)O (configuration not stated) reads inconclusive: 14%
